Source: patent US20040210040A1 (PDL BIOPHARMA, published 2004)
Results are given in words; binding and its absence hold for the method and conditions named. Some entries that bind do so weakly or less than the wild type.

T1: full-length cell surface human AR on transfected CHO cells (human) (UniProt P15514)
T1 sequence: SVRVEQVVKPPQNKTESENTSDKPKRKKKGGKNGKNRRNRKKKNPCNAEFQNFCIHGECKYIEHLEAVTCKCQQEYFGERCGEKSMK

T2: recombinant soluble human amphiregulin (human, UniProt P15514 101-198, limits assumed)
T2 sequence: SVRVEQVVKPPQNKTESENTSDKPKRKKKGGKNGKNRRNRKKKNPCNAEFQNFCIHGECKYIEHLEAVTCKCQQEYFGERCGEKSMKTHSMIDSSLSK


Columns and labels:
[1] = target: T1, full-length cell surface human AR on transfected CHO cells (human); test: flow cytometry on cells expressing AR (FIG. 2)
[2] = target: T2, recombinant soluble human amphiregulin; test: direct binding ELISA (table column BINDING: AR)
[3] = target: T1, full-length cell surface human AR on transfected CHO cells (human); test: flow cytometry on CHO transfectants expressing surface AR
[4] = target: T1, full-length cell surface human AR on transfected CHO cells (human); test: flow cytometry (FL2-H) on cells expressing surface amphiregulin
[5] = target: T1, full-length cell surface human AR on transfected CHO cells (human); test: table column BINDING: Surface AR (sheet footnote: direct binding as detected by ELISA; text: flow cytometry on CHO cells with surface human AR)
[6] = target: T2, recombinant soluble human amphiregulin; test: competition ELISA on plate-coated recombinant soluble human amphiregulin; competes with biotinylated PAR34
Protocol: The affinity of HuPAR34 to human amphiregulin was analyzed by competition ELISA. MaxiSorp ELISA plates (Nalge Nunc International) were coated overnight at 4° C. with 100 μl/well of 0.5 μg/ml recombinant soluble human amphiregulin in 0.2 M sodium carbonate-bicarbonate buffer, pH 9.4, washed with Wash Buffer (PBS containing 0.1% Tween 20), and blocked for 15 min at room temperature with 200 μl/well of SuperBlock Blocking Buffer in TBS (Pierce Chemical Company). After washing with Wash Buffer, a mixture of biotinylated PAR34 (0.125 μg/ml final concentration) and competitor antibody (PAR34 or HuPAR34 starting at 75 μg/ml final concentration and serially diluted 3-fold) in 100 μl/well of ELISA buffer was added in triplicate. As a control, 100 μl/well of 75 μg/ml of humanized anti-CD33 IgG1/κ monoclonal antibody HuM195 (Co, M. S. et al., J. Immunol., 148: 1149-1154 (1992)) in ELISA buffer was used. As a no-competitor control, 100 μl/well of ELISA Buffer was used. After incubating the plates for 1 hr and washing with Wash Buffer, bound antibodies were detected using 100 μl/well of 1 μg/ml HRP-conjugated streptavidin (Pierce Chemical Company) in ELISA buffer. After incubating for 0.5 hr at room temperature and washing with Wash Buffer, color development was performed by adding 100 μl/well of ABTS substrate (KPL, Inc.). […] Absorbance was read at 415 nm. […]

[7] = target: T2, recombinant soluble human amphiregulin; test: competition ELISA on coated recombinant soluble human amphiregulin

binding [1]	binding [2]	binding [3]	binding [4]	binding [5]	binding [6]	binding [7]	Binder
binds	binds	binds	binds	binds			PAR80 (murine anti-amphiregulin monoclonal antibody) (antibody, mouse IgG2a, V domains shown) VH: EVQLQQSGAELVRSGASVKLSCTASGFNIKDYYIHWVKQRPEQGLEWIGCIDPENGDTEYAPNFQGRATMTADTSSNTAYLQLSSLTSEDTAVYYCYGGTITFAYWGQGTLVTVSA VL: QAVVTQESALTTSPGETVTLTCRSSTGAVTTSNSANWVQEKPDHLFTGLIGGTINRVPGVPARFSGSLIGDKAALTITGAQTEDEAIYFCALWYSNHWVFGGGTKLTVLG
binds	binds	binds	binds	binds	binds		PAR34 (murine anti-amphiregulin monoclonal antibody) (antibody, mouse IgG2b, V domains shown) VH: EIQLQQSGPELVKPGASVKVSCKASGYAFTNYNMYWVKQSHGKSLEWIGYIDPYYGDPGYSQKFKGKATLTVDKSSSTAYMHLNSLTSEDSAVYYCARRGNFPYYFDYWGQGTTLTVSS VL: DIKMTQSPSSMYASLGERVTITCKASQDINSYLSWFQQKPGKSPKTLIYRANRLVDGVPSRFSGSGSGQDYSLTISSLEYEDMGIYYCLQYDEFPYTFGGGTKLEIK
					binds	binds	HuPAR34 (humanized PAR34, IgG1/kappa) (antibody, V domains shown) VH: EVQLVQSGAEVKKPGASVKISCKVSGYAFTNYNMYWVRQAPGKGLEWIGYIDPYYGDPGYSQKFKGKATLTVDKSTSTAYMELSSLRSEDTAVYYCARRGNFPYYFDYWGQGTLVTVSS VL: DIQMTQSPSSLSASVGDRVTITCKASQDINSYLSWFQQKPGKAPKTLIYRANRLVDGVPSRFSGSGSGQDYTLTISSLQPEDFATYYCLQYDEFPYTFGGGTKVEIK
